Experimental findings from paper PMC12040169 (PLOS Biology, 2025) are described below.

The other results are listed elsewhere or left out.

For this test, the system named is T1, CTL2-GFP (C. trachomatis L2/434/Bu, GFP-expressing).
T1 construct: L2/434/Bu, GFP-expressing
Also on record: species or system HeLa; Intracellular C. trachomatis growth in HeLa cells, bulk GFP fluorescence relative to DMSO. Conditions: bulk GFP, single well; 28.5 h, 10 µM; inhibitor.
Turning to `O=C(O)[C@@H]1CCCN1C(=O)C1CCC(Cn2nnc3ccccc3c2=O)CC1` (some centres unmarked) [CBK286658], the “% of control remaining” value is 129.6%.

In the case of `Cc1cnc2c(c1)cc(C(F)(F)F)n2CC(=O)NC1CC1` [CBK282887], the “% of control remaining” value was determined as 122.747%.

Turning to `CCn1c(SCC(=O)Nc2cc(Cl)ccc2O)nnc1-c1ccccc1` [CBK269680], the “% of control remaining” value is listed as 96.6605%.

Take `Cc1nc2sccn2c1CN1CCCC(C(=O)N2CCOCC2)C1` (centres unmarked) [CBK305390]: the “% of control remaining” value is given as 126.801%.

In the case of `FC(F)(F)c1ccc(SCc2ccccc2)nc1` [CBK103715], the “% of control remaining” value came out at 103.421%.

For the compound `O=[N+]([O-])c1ccccc1S(=O)(=O)Nc1ccc(S(=O)(=O)Nc2ncccn2)cc1` [CBK264768], the “% of control remaining” value is recorded as 58.2429%.

In the case of `O=C(NC(=S)Nc1cccc2c(O)cccc12)c1ccc(-c2ccccc2)cc1` [CBK269022], the “% of control remaining” value came out at 139.978%.

With `CN(C)CCNC(=O)c1sc2ccccc2c1CC1CCCCCN1C(=O)C1CCC1` (centres unmarked) [CBK286096], the “% of control remaining” value is 97.4604%.

Turning to `COc1ccccc1-c1noc(C2CCN(S(=O)(=O)c3ccc(F)cc3)CC2)n1` [CBK269401], the “% of control remaining” value worked out at 103.899%.

Regarding `Cc1cccc(OCC(C)NC(=O)NCCc2cnn(C)c2)c1` (centres unmarked) [CBK304887], the “% of control remaining” value was 10.0772%.

Consider `Cc1nnnn1-c1cc(NC(=O)N(C)C(C)C)ccc1F` [CBK304708], for which the “% of control remaining” value came out at 94.9468%.

`NC(=O)C1(N2CCCCC2)CCN(CC(=O)Nc2ccccc2Sc2ccccc2)CC1` [CBK268488]: the “% of control remaining” value is listed as 138.938%.

Take `O=C(Cc1c(O)c2ccccc2[nH]c1=O)NCc1ccccc1Cl` [CBK160320]: the “% of control remaining” value was determined as 91.3792%.

Turning to `N=c1n(CC(=O)O)c2ccccc2n1Cc1ccccc1Cl` [CBK262917B], the “% of control remaining” value was 100.224%.

As for `O=C(C1CC=CCC1)N1CCCC(c2[nH]ncc2-c2ccncc2)C1` (centres unmarked) [CBK284198], the “% of control remaining” value is recorded as 91.3108%.

Consider `O=C(Cn1cccn1)NC(Cc1ccsc1)c1cccnc1` (centres unmarked) [CBK285396], for which the “% of control remaining” value is listed as 115.98%.

On to `CCC(CN1CCCCC1)n1cncc1-c1cn(C)nc1C` (centres unmarked) [CBK281460], for which the “% of control remaining” value was 112.117%.

For `COCc1nnc(Sc2nc3ccccc3nc2NC(C)C)s1` [CBK115253], the “% of control remaining” value is on record as 100%.

With `NC(=O)c1ccc(-n2cc(-c3ccc(Cl)cc3)nn2)cc1` [CBK113046], the “% of control remaining” value was 161.679%.

Regarding `COc1ccccc1C1(O)CCN(CC(O)c2ccc3c(c2)OCCO3)CC1` (centres unmarked) [CBK286482], the “% of control remaining” value worked out at 120.694%.

With `Cc1ccc(-c2ccc(/C=C(\C#N)c3nc(-c4ccco4)cs3)o2)c([N+](=O)[O-])c1` [CBK266685], the “% of control remaining” value turned out to be 128.116%.

For `CCCC(=O)c1ccc(S(=O)(=O)N2CCN(Cc3ccc(C(C)=O)cc3)CC2)cc1` [CBK063159], the “% of control remaining” value worked out at 92.8818%.

`c1ccc(C(Nc2cnccn2)C2CC2)cc1` (centres unmarked) [CBK304145]: the “% of control remaining” value stood at 81.4465%.

In the case of `CC1=CC(C)C(C(=O)O)C(C(=O)Nc2ccccc2)C1` (centres unmarked) [CBK286851], the “% of control remaining” value was 113.847%.

Consider `CCCC(=O)Nc1ccccc1OC1CCNCC1` [CBK045902T], for which the “% of control remaining” value is listed as 81.6865%.

Turning to `O=C(Nc1ccnn1Cc1ccccc1)C1CC(c2cccc(F)c2)=NO1` (centres unmarked) [CBK297772], the “% of control remaining” value is 114.177%.

`COc1ccc(-c2cn3ccnc3c(Nc3ccc(N4CCOCC4)cc3)n2)cc1` [CBK066265]: the “% of control remaining” value is listed as 149.934%.

Take `COC(=O)Cn1c(C(C)(C)C)cn2c3c(=O)n(C)c(=O)n(C)c3nc12` [CBK307555]: the “% of control remaining” value is given as 149.999%.

As to `CCOC(=O)c1ccc(NC(=O)N2CCC3(CC2)NC(=O)Cc2ccccc23)cc1` [CBK047362], the “% of control remaining” value was found to be 109.095%.

In the case of `CC(C)C1CC(CCNCc2ccc(N(C)C)cc2)(c2ccccc2)CCO1` (centres unmarked) [CBK266210], the “% of control remaining” value turned out to be 135.575%.

For the compound `O=C(Cc1cccc2ccccc12)NC(NC(=S)Nc1ccccc1Br)C(Cl)(Cl)Cl` (centres unmarked) [CBK261094], the “% of control remaining” value turned out to be 92.2744%.

On to `c1ccc2cc(-c3cn4ccnc4c(N4CCN(c5ccncc5)CC4)n3)ccc2c1` [CBK066369], for which the “% of control remaining” value is given as 115.076%.

Regarding `CN(C)C(=O)CN1CCC2(CC1)CN(S(C)(=O)=O)c1ccccc12` [CBK126686], the “% of control remaining” value came out at 116.035%.

Consider `CC(=O)N1CCC(C(=O)NC(=O)Nc2cccc(C)c2)CC1` [CBK034854], for which the “% of control remaining” value is listed as 115.084%.

On to `O=C(Nc1cccnc1N1CCNCC1)c1ccccn1` [CBK029425T], for which the “% of control remaining” value was determined as 97.6623%.

With `CCOC(=O)N1CCN(Cc2ccc(OCc3nccn3C)cc2)CC1` [CBK305413], the “% of control remaining” value is 84.7756%.

As for `CC1CCN(C(=O)c2cccc(Cn3cc(Br)cn3)c2)CC1` [CBK058482], the “% of control remaining” value was 131.866%.

On to `O=C(NCCn1nc2c(cc1=O)CCCCC2)c1cccs1` [CBK283277], for which the “% of control remaining” value came out at 111.232%.

On to `CCN1C(=O)C2(CC(=O)N(CCCN(C)C(=O)c3ccco3)C2=O)c2cc(C)ccc21` (centres unmarked) [CBK075141], for which the “% of control remaining” value was found to be 87.9514%.

In the case of `CC(O)C(=O)NS(=O)(=O)c1ccccc1` (centres unmarked) [CBK038300], the “% of control remaining” value stood at 118.554%.

Regarding `Cc1ccc(S(=O)(=O)CC(=O)N2CCCC3(CCN(C(=O)c4cc(F)c(F)cc4F)C3)C2)cc1` (centres unmarked) [CBK131558], the “% of control remaining” value stood at 100.089%.

Consider `CC(C)N(C(=O)Cn1c(C(F)F)cc2cccnc21)C(C)C` [CBK285009], for which the “% of control remaining” value was 136.622%.

In the case of `Cc1cnoc1-c1cc(Br)cc(Br)c1O` [CBK012420], the “% of control remaining” value is on record as 116.938%.

Take `CCN(CC(=O)NCc1ccc(F)cc1)S(=O)(=O)c1ccccc1C#N` [CBK305842]: the “% of control remaining” value came out at 99.3953%.

Regarding `CC(=O)Nc1cccc(NC(=O)CCCC(=O)O)c1` [CBK261598], the “% of control remaining” value stood at 100%.

As to `COc1ccc(/C=N/NC(=O)c2ccc(CN3CCOCC3)cc2)cc1[N+](=O)[O-]` [CBK262708], the “% of control remaining” value came out at 141.071%.

Regarding `Cc1nnc(SCCn2c(N3CC(C)CC(C)C3)nc3c2c(=O)n(C)c(=O)n3C)s1` (centres unmarked) [CBK269419], the “% of control remaining” value is on record as 97.4039%.

With `Cc1ccc(N(Cc2ccc(C(=O)N(C)Cc3ccccc3)cc2)S(C)(=O)=O)cc1C` [CBK263795], the “% of control remaining” value is reported as 117.749%.

Take `N#CC(N)c1c(Cl)cccc1Cl` (centres unmarked) [CBK008288C]: the “% of control remaining” value is recorded as 138.757%.

Turning to `Nc1ncnc(NCCCn2ccnc2)c1[N+](=O)[O-]` [CBK267312], the “% of control remaining” value was found to be 137.784%.

Consider `O=C1CC(c2ccccc2)c2c(n3ccsc3nc2=O)N1` (centres unmarked) [CBK287923], for which the “% of control remaining” value was determined as 136.954%.

`Cc1nn(C)c(C)c1NC(=O)COc1ccc2c(c1)CCCC2=O` [CBK304963]: the “% of control remaining” value came to 82.5877%.

`O=S(=O)(CCN1CCC2(CC1)CN(CCO)c1ccccc12)c1ccccc1` [CBK126758]: the “% of control remaining” value is 65.0069%.

Turning to `COc1ccc2[nH]cc(CCNC(=O)C3CC(=O)c4ccccc43)c2c1` (centres unmarked) [CBK116221], the “% of control remaining” value was 110.16%.

As to `Cc1cc(C)cc(-c2ccc(CC3(C(=O)NC(C)CO)CCOCC3)cc2)c1` (centres unmarked) [CBK286523], the “% of control remaining” value is 92.0454%.

In the case of `COc1ccc(-n2c(C)c([N+](=O)[O-])c3ccc(O)c(CNCCCO)c32)cc1` [CBK263504C], the “% of control remaining” value turned out to be 100%.

With `CC(C)(c1ccccc1)c1ccc(OCCNCCN)cc1` [CBK265102], the “% of control remaining” value is recorded as 113.166%.

In the case of `O=C(c1cccnc1)N1CCC(c2cc3ccccc3cn2)CC1` [CBK284891], the “% of control remaining” value is 89.9583%.

With `C[C@@H](Cn1nnc2ccccc21)NC(=O)Cc1cccs1` [CBK282312], the “% of control remaining” value is 123.255%.

For the compound `CC(=O)c1ccc(-c2nc(NS(C)(=O)=O)cc3cccnc23)cc1` [CBK061874], the “% of control remaining” value worked out at 87.1592%.

As for `COc1cc(C)c(Nc2cc(-c3ccc4c(c3)OCO4)ncn2)cc1OC` [CBK037711], the “% of control remaining” value is reported as 163.651%.

As for `O=C(NCc1ccco1)c1cc(-c2ccc(Cl)cc2)cnc1N1CCOCC1` [CBK076352], the “% of control remaining” value is 121.28%.

Consider `O=C(NCCn1nc(-c2ccco2)ccc1=O)c1ccccc1F` [CBK283742], for which the “% of control remaining” value came to 145.491%.

Consider `CC(C)(C)c1cn2c3ccccc3nc2n1CCO` [CBK273412], for which the “% of control remaining” value stood at 128.912%.

With `COc1ccc(C2c3cc(OC)c(OC)cc3CC(=O)N2c2ccc(C(=O)O)cc2)cc1` (centres unmarked) [CBK296074], the “% of control remaining” value is recorded as 144.572%.

On to `OCC(CNc1ncnc2nc[nH]c12)Cc1ccccn1` (centres unmarked) [CBK304412], for which the “% of control remaining” value worked out at 162.164%.

Turning to `O=S(=O)(CCc1ccccn1)N1CCC(Cc2ccccc2)CC1` [CBK043632], the “% of control remaining” value turned out to be 87.8066%.

On to `COc1ccc(CN2CCN(Cc3cccnc3)CC2)cc1OC` [CBK074409G], for which the “% of control remaining” value is given as 126.573%.

On to `Cc1cc(NC(=O)N(Cc2cnn(C)c2)CC(C)C)ccc1F` [CBK304206], for which the “% of control remaining” value was 50.9856%.

Take `CCOC(=O)c1c(NC(=O)CSc2ncnc3sc(C)c(C)c23)sc(C)c1C` [CBK266440]: the “% of control remaining” value was determined as 102.94%.

Turning to `NCc1ccc(OC2CCNCC2)cc1` [CBK003920T], the “% of control remaining” value is 117.632%.

As for `CCn1c2ccccc2c2cc(C(N)=O)c(N)nc21` [CBK019787], the “% of control remaining” value is 144.096%.

For the compound `CCNC(=O)c1c(O)c2ccccc2[nH]c1=O` [CBK262450], the “% of control remaining” value was found to be 143.192%.

As to `Cc1ccc(-c2oncc2C(=O)N2CCC(n3c(=O)[nH]c4ccccc43)CC2)cc1` [CBK149180], the “% of control remaining” value was 77.514%.

`Cc1ccc(S(=O)(=O)c2cncc(N3CCNCC3)n2)cc1` [CBK051166C]: the “% of control remaining” value is recorded as 91.4429%.

Regarding `CC(=O)N1CCCc2cc(C(O)CN3CCC(C)CC3)ccc21` (centres unmarked) [CBK282588], the “% of control remaining” value turned out to be 119.273%.

As for `COc1ccc(-c2ccc3c(c2)C(=O)N2CC[C@H](N)C[C@H]2C(=O)N3)c(OC)c1` [CBK289560], the “% of control remaining” value is 100.298%.

In the case of `Cc1ccc(-c2nccnc2OCCC(C)C)c(C)c1` [CBK106988], the “% of control remaining” value is given as 124.086%.

Regarding `Cc1nc(C)c(C(=O)N2CCC(c3cc4cccnc4[nH]3)CC2)s1` [CBK284998], the “% of control remaining” value came to 97.402%.

With `N#Cc1ccc(Cn2nc(NC(=O)c3ccco3)c3ccccc32)cc1` [CBK048260], the “% of control remaining” value was found to be 100%.
